Reference: paper PMC12187939
Results are given in words; binding and its absence hold for the method and conditions named. In cells and extracts the contact can be indirect. These calls come from enrichment with a bait or labelling near it, and not all partners need be listed. Sequences can lack the tags named with a protein.

The chains behind the UniProt entries cited, without tags or fusion partners.
UniProt Q92793: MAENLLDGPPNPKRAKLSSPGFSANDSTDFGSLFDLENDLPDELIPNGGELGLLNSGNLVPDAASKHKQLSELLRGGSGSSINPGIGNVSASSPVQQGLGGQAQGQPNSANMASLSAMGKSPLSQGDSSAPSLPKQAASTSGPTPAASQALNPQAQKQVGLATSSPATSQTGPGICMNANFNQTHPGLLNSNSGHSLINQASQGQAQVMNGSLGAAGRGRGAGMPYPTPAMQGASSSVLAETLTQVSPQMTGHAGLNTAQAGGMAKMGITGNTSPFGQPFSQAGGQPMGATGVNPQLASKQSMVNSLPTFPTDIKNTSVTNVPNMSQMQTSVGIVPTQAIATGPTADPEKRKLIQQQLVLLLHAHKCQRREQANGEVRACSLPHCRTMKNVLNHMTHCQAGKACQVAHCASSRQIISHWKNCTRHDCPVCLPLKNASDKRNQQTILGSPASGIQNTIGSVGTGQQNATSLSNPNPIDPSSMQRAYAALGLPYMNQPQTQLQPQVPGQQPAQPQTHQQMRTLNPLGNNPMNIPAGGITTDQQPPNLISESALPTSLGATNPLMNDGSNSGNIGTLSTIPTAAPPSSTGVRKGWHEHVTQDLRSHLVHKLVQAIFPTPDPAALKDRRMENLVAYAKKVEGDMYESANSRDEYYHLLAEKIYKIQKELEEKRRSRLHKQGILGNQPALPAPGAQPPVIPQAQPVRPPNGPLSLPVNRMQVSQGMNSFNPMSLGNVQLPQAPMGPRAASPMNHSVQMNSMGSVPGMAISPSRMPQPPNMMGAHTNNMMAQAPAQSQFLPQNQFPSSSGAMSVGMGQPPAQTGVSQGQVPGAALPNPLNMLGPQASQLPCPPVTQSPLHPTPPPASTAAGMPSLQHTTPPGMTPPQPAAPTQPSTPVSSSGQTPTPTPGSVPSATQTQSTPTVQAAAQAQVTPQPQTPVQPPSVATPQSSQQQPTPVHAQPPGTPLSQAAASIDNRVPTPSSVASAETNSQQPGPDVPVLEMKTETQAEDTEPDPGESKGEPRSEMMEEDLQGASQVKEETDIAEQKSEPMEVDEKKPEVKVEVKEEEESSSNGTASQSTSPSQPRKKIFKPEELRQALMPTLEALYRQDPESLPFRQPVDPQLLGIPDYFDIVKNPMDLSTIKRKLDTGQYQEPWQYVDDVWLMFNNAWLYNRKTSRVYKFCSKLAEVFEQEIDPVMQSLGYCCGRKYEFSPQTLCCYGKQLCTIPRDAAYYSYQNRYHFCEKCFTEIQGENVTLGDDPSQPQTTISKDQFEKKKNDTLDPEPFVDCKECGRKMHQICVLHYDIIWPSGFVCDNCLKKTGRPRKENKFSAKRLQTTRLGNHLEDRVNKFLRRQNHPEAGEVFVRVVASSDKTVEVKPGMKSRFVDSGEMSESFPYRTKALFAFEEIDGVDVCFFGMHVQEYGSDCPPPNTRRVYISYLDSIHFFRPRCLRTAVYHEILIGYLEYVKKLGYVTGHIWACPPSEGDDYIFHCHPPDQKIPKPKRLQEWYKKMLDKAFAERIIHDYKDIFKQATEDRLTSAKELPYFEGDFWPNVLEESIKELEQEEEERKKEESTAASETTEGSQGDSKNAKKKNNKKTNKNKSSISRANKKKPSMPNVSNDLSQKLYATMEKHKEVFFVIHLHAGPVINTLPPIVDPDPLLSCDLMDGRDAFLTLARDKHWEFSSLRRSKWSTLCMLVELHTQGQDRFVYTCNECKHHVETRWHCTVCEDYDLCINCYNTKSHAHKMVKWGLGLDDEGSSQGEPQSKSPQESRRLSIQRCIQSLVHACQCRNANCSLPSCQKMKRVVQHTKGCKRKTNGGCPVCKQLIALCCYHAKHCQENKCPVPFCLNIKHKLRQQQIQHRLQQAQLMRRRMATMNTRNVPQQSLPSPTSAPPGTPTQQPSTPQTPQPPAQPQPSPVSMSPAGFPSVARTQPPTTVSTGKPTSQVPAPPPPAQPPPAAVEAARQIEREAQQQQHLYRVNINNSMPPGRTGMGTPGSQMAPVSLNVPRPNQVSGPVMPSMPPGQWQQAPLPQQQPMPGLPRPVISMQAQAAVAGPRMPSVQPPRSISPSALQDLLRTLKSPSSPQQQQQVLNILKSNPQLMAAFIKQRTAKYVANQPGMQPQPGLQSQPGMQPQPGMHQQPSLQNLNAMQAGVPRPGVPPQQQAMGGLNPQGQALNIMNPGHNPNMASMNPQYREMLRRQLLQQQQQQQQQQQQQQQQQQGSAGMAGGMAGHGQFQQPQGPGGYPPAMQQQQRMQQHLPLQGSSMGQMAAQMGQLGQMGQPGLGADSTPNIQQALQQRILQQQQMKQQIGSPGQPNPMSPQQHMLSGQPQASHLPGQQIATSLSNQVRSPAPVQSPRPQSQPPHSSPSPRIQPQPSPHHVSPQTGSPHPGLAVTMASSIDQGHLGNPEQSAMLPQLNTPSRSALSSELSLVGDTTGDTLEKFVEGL
UniProt Q9Y297: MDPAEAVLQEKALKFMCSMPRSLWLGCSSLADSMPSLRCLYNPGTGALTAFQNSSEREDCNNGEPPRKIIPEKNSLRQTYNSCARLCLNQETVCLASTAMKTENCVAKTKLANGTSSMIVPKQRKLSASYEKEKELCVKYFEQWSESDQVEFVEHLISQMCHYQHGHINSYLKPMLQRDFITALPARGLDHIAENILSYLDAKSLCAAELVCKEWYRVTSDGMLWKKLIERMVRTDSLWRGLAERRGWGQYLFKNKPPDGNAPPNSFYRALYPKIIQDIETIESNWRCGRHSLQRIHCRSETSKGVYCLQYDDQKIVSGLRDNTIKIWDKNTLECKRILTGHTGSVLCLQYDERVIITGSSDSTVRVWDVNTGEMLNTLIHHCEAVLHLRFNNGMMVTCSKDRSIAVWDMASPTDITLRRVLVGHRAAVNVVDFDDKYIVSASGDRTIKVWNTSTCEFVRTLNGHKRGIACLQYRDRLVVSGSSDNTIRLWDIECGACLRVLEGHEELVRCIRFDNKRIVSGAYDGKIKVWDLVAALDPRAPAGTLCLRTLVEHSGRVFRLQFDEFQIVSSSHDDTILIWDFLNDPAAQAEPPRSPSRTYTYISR
UniProt Q9ULX9: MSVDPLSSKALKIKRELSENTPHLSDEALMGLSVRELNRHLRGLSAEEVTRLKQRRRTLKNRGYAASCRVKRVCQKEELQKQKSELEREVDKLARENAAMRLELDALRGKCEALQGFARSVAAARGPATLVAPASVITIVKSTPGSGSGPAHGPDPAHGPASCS
UniProt O60675: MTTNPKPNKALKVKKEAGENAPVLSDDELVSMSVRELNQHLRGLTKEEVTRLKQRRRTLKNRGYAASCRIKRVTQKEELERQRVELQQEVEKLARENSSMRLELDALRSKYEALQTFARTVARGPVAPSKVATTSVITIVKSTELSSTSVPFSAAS
UniProt Q969G3: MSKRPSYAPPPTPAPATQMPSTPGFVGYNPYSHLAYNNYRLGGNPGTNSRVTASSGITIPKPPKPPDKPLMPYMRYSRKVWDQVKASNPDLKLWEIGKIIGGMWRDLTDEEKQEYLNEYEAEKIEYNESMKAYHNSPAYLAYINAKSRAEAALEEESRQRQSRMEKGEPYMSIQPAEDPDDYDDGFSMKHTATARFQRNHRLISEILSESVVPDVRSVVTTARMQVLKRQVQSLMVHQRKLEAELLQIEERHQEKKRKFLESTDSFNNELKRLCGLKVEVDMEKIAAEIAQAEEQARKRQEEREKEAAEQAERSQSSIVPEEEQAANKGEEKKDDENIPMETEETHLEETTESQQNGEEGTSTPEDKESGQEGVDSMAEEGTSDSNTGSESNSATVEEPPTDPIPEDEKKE
UniProt Q09472: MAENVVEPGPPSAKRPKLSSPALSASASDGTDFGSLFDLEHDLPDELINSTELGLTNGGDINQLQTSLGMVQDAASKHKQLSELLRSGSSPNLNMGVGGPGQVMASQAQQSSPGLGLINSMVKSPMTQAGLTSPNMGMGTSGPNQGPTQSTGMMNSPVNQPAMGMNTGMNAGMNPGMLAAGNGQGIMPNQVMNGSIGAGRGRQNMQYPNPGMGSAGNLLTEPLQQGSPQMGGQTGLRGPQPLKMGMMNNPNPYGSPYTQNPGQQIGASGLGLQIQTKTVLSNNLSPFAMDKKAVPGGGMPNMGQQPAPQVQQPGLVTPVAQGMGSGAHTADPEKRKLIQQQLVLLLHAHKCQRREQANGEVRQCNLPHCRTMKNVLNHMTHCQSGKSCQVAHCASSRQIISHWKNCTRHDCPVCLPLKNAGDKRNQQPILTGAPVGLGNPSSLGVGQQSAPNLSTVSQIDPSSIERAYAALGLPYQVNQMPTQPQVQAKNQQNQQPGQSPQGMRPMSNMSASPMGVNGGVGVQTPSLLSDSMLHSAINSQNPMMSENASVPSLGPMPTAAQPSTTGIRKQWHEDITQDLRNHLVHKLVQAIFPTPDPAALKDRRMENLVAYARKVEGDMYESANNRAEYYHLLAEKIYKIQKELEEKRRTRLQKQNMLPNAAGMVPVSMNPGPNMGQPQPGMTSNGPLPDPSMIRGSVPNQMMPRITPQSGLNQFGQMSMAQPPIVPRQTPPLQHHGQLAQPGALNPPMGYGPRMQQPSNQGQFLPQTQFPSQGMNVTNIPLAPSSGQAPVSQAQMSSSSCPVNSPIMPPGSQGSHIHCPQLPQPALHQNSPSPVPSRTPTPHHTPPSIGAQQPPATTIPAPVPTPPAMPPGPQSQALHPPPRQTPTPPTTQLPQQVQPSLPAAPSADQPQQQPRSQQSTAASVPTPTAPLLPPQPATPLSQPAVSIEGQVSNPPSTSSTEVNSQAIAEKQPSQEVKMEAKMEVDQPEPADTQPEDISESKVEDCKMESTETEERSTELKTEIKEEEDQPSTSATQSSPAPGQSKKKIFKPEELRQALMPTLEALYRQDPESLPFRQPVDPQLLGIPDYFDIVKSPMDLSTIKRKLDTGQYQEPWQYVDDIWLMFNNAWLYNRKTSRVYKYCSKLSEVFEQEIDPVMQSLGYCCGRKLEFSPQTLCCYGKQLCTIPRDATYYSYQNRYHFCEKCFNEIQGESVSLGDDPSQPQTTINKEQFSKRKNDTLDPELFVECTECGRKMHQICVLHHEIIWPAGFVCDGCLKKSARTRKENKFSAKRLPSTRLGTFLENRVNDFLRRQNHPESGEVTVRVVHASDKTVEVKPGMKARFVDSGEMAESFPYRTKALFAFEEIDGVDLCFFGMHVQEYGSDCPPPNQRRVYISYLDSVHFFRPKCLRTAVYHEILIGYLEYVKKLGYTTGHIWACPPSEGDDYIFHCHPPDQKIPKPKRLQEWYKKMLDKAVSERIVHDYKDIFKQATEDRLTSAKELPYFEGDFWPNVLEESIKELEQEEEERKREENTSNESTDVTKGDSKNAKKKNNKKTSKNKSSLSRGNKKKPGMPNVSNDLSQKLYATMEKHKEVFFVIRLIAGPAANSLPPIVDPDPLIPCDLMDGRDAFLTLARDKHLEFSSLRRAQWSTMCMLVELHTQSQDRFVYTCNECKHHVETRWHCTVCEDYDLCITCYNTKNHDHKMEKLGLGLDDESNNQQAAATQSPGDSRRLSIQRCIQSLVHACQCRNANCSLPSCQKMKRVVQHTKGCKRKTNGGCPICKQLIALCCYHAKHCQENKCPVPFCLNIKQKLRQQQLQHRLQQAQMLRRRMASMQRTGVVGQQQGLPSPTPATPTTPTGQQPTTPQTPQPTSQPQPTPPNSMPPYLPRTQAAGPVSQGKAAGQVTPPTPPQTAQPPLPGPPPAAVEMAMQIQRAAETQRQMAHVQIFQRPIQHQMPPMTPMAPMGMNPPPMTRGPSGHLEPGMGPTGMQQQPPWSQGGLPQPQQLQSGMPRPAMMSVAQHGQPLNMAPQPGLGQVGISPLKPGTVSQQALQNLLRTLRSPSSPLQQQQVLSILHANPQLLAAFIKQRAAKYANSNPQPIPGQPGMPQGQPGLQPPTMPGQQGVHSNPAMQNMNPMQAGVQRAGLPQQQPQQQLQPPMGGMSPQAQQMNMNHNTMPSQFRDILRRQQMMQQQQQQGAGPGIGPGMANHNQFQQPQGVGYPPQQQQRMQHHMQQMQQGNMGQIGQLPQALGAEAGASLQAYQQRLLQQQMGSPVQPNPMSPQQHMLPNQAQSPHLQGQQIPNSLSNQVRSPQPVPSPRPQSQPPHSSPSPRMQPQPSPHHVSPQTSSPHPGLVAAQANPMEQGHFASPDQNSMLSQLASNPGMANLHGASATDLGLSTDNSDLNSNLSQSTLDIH

These substances were tested against T1, FLAG-tagged WT NRF2, stably expressed in A549 (TRE3G-driven, dox-induced) (UniProt Q16236) (assay: affinity purification with mass spectrometry; FLAG IP (anti-FLAG M2 magnetic beads, overnight at 4 °C) from nuclear lysates of A549 cells stably expressing TRE3G-driven Renilla luciferase, WT NRF2 or Neh4/5mut, 24 h after doxycycline; 8 mg lysate per IP; on-bead digestion, TMT; four replicates).
T1 sequence: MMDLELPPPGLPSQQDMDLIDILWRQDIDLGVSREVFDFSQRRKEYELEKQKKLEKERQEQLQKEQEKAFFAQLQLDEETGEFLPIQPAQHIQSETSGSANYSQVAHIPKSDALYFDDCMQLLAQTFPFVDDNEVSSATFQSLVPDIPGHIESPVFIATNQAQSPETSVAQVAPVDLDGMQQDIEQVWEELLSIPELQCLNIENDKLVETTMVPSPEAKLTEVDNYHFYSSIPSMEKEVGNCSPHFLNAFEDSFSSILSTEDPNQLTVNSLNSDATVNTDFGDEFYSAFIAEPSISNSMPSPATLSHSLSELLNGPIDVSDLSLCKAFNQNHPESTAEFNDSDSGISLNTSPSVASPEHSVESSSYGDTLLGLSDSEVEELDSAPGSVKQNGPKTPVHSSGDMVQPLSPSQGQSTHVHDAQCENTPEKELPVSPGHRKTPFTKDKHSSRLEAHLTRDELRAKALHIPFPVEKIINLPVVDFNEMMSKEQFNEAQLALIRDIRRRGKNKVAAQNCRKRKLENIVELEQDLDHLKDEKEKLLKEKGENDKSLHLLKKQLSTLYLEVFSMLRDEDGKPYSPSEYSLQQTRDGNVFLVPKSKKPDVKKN

binding, binds:
CBP, A549 nuclear extract (from UniProt Q92793 1-2442)
FBXW1A (bTrCP-1), A549 nuclear extract (from UniProt Q9Y297 1-605)
MAFF (sMAF protein), A549 nuclear extract (from UniProt Q9ULX9 1-164)
MAFK (sMAF protein), A549 nuclear extract (from UniProt O60675 1-156)
SMARCE1, A549 nuclear extract (from UniProt Q969G3 1-411)
p300, A549 nuclear extract (from UniProt Q09472 1-2414)
